Publication PMC3751493
These are yes or no findings as the source states them, for the method shown. Some entries that bind do so weakly or less than the wild type.

Protein sequences, listed by entry. Tags and fused reporters are not part of them. Residues count along the entry.
UniProt Q9DC69, residues 36-377: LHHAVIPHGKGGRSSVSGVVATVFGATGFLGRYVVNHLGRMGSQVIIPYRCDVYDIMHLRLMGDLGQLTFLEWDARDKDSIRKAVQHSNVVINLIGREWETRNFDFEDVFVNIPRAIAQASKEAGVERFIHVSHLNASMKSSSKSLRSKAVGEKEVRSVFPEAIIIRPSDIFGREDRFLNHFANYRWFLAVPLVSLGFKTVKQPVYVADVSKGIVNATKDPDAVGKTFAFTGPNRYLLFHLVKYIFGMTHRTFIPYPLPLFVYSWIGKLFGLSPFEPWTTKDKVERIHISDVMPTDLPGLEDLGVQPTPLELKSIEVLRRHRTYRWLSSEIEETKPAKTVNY
UniProt Q3UIU2: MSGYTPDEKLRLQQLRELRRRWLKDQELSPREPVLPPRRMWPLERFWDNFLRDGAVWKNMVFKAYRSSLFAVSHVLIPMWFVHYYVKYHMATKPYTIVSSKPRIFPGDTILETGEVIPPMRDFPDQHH
UniProt P03911: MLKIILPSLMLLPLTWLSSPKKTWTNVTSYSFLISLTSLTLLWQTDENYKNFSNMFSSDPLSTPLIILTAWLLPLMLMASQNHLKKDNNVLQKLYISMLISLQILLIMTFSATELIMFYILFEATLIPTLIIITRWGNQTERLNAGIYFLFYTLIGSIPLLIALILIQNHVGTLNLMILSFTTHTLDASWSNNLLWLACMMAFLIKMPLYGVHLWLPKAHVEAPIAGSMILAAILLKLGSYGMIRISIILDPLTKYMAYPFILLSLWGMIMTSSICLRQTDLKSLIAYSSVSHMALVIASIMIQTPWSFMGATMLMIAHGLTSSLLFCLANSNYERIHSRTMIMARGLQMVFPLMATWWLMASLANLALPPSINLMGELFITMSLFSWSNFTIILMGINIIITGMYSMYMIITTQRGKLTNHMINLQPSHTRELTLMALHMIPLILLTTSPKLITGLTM
UniProt Q9DCT2, residues 36-263: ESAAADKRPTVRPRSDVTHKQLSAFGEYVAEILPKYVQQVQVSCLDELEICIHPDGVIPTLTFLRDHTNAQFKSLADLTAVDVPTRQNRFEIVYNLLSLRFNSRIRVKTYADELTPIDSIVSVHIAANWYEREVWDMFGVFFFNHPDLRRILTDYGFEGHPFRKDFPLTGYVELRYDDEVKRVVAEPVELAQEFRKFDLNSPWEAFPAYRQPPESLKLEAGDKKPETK
UniProt Q9CQZ5: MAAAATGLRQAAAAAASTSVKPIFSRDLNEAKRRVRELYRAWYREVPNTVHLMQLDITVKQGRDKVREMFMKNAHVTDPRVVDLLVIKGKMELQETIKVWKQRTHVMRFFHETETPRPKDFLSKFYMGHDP
UniProt Q9DC70, residues 36-224: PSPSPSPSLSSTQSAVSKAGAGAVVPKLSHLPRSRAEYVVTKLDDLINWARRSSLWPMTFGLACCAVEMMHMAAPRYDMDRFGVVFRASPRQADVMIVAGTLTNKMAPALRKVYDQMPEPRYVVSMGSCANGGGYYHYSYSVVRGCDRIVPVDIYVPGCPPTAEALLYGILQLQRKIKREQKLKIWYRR
UniProt Q9D6J5, residues 29-186: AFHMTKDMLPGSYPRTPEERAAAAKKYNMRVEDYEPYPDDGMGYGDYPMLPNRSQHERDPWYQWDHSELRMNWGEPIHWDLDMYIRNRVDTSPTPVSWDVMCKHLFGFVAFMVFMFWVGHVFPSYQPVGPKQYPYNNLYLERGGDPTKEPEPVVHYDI

Columns and labels:
[1] = target: complex I subunit NDUFA9 (mouse (endogenous in liver mitochondria)) (UniProt Q9DC69); assay: native gel or EMSA; one-dimensional 5% to 15% BN-PAGE of mouse liver mitochondrial complexes (n-dodecyl β-D-maltoside) after 10 μM PGZ in vitro; western blot with antibodies against complex I subunits; subunits found in the same band
[2] = target: complex I subunit NDUFA9 (mouse (endogenous in liver mitochondria)) (UniProt Q9DC69); assay: native gel or EMSA; two-dimensional BN/SDS-PAGE of mouse liver mitochondria (30 μg) exposed to 10 μM PGZ for 30 minutes; western blot with antibodies against complex I subunits; subunits found in the same subcomplex
[3] = target: T1, complex I subunit MTND6 (mouse (endogenous in liver mitochondria)) (UniProt P03925); assay: native gel or EMSA; one-dimensional 5% to 15% BN-PAGE of mouse liver mitochondrial complexes (n-dodecyl β-D-maltoside) after 10 μM PGZ in vitro; western blot with antibodies against complex I subunits; subunits found in the same band
T1 sequence: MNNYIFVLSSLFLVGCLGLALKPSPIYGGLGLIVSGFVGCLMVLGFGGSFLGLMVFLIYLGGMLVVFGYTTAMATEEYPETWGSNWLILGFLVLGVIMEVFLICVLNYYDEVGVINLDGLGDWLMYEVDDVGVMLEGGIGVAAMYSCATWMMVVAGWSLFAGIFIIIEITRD

[4] = target: T1, complex I subunit MTND6 (mouse (endogenous in liver mitochondria)); assay: native gel or EMSA; two-dimensional BN/SDS-PAGE of mouse liver mitochondria (30 μg) exposed to 10 μM PGZ for 30 minutes; western blot with antibodies against complex I subunits; subunits found in the same subcomplex
[5] = target: complex I subunit NDUFB6 (mouse (endogenous in liver mitochondria)) (UniProt Q3UIU2); assay: native gel or EMSA; one-dimensional 5% to 15% BN-PAGE of mouse liver mitochondrial complexes (n-dodecyl β-D-maltoside) after 10 μM PGZ in vitro; western blot with antibodies against complex I subunits; subunits found in the same band
[6] = target: complex I subunit NDUFB6 (mouse (endogenous in liver mitochondria)) (UniProt Q3UIU2); assay: native gel or EMSA; two-dimensional BN/SDS-PAGE of mouse liver mitochondria (30 μg) exposed to 10 μM PGZ for 30 minutes; western blot with antibodies against complex I subunits; subunits found in the same subcomplex
[7] = target: complex I subunit MTND4 (mouse (endogenous in liver mitochondria)) (UniProt P03911); assay: native gel or EMSA; one-dimensional 5% to 15% BN-PAGE of mouse liver mitochondrial complexes (n-dodecyl β-D-maltoside) after 10 μM PGZ in vitro; western blot with antibodies against complex I subunits; subunits found in the same band
[8] = target: complex I subunit MTND4 (mouse (endogenous in liver mitochondria)) (UniProt P03911); assay: native gel or EMSA; two-dimensional BN/SDS-PAGE of mouse liver mitochondria (30 μg) exposed to 10 μM PGZ for 30 minutes; western blot with antibodies against complex I subunits; subunits found in the same subcomplex

Molecule: complex I subunit NDUFS3 (from UniProt Q9DCT2 36-263)
- binding [1]: binds
- binding [2]: binds

Molecule: complex I subunit NDUFA6 (from UniProt Q9CQZ5 1-131)
- binding [1]: binds
- binding [2]: binds

Molecule: complex I subunit NDUFS7 (from UniProt Q9DC70 36-224)
- binding [1]: binds
- binding [2]: binds

Molecule: complex I subunit NDUFB6 (from UniProt Q3UIU2 1-128)
- binding [3]: binds
- binding [1]: binds
- binding [4]: binds
- binding [2]: binds

Molecule: complex I subunit NDUFB8 (from UniProt Q9D6J5 29-186)
- binding [3]: binds
- binding [1]: binds
- binding [5]: binds
- binding [4]: binds
- binding [2]: binds
- binding [6]: binds

Molecule: complex I subunit MTND4 (from UniProt P03911 1-459)
- binding [2]: binds

B1: complex I subunit NDUFC2 (protein, UniProt Q9CQ54 1-120)
chain: MMNGRPGHEPLKFLPDEARSLPPPKLNDPRLVYMGLLGYCTGLMDNMLRMRPVMRAGLHRQLLFVTSFVFAGYFYLKRQNYLYAVKDHDMFGYIKLHPEDFPEKEKKTYAEILEPFHPVR
- binding [7]: binds
- binding [8]: binds
- binding [2]: binds

B2: complex I subunit MTND6 (protein, UniProt P03925 1-172)
chain: MNNYIFVLSSLFLVGCLGLALKPSPIYGGLGLIVSGFVGCLMVLGFGGSFLGLMVFLIYLGGMLVVFGYTTAMATEEYPETWGSNWLILGFLVLGVIMEVFLICVLNYYDEVGVINLDGLGDWLMYEVDDVGVMLEGGIGVAAMYSCATWMMVVAGWSLFAGIFIIIEITRD
- binding [1]: binds
- binding [2]: binds
